For at least one entry, the source does not settle the construct or the ends of the probe. A negative result means that nothing was seen under these conditions. Protein sequences can lack the tags named with them.
Biological target: T1, MdNAC4-GST (Malus domestica) (UniProt B6DXL4)
T1 sequence (looked up): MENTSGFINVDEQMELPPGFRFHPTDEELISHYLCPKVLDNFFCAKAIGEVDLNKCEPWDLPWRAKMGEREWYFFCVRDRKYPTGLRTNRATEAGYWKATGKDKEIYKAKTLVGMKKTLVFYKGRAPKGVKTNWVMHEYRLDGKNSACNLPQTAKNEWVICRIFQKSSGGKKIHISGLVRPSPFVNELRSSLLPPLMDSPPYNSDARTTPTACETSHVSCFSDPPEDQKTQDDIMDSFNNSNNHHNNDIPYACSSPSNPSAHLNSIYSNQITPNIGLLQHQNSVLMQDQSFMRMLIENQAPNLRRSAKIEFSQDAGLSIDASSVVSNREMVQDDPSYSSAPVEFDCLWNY
Assay: EMSA
Settings: EMSA binding buffer (composition not given), 24 °C, 30 min in the dark; recombinant protein; residues 1-350; protein details: GST (pGEX-4T-1 type primers GST-MdNAC4-F/R)

ATATAGGCCCGTCAAGGGAGGACAGAGATG / CATCTCTGGCCTGCCTTCACGTGCCTATAT [MdNYC1 Mut probe]
binding result: no binding

— paper PMC9280364, “MdNAC4 Interacts With MdAPRR2 to Regulate Nitrogen Deficiency-Induced Leaf Senescence in Apple (Malus domestica)”
